± gives the standard deviation of the averaged measurements. The list shows a part of the results.
Compound: Nc1nc2c(ncn2[C@@H]2O[C@H](COP(=O)(O)OP(=O)(O)OP(=O)(O)O)[C@@H](O)[C@H]2O)c(=O)[nH]1 [guanosine triphosphate]
Assay: NP40-soluble protein abundance relative to vehicle (solubility fold change) (ratio); higher = more soluble protein in presence of GTP
Details: concentration: 8mM
Procedure, shortened: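 In three independent experiments, Jurkat crude lysate made by Dounce homogenisation was treated for 10 min at room temperature and then 3 min at 37 °C with eight concentrations ranging from 0.1 to 10 mM. It was then solubilised with 0.8% NP40 plus benzonase for 60 min at 4 °C and ultracentrifuged. The supernatant was TMT-labelled for LC-MS/MS, and each value is the fold change against the detergent-processed vehicle for the same replicate, using vsn-normalised intensities.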

Sequences of proteins named here, by UniProt entry; tags and fusion partners are left off. A change or cut given only in a name is not applied to a line headed by its entry.
UniProt P01848, whole entry, looked up: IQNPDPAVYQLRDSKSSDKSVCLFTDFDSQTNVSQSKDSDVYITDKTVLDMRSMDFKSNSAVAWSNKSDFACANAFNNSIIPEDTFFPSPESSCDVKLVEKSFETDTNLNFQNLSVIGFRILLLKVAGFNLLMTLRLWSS
UniProt Q8WWP7: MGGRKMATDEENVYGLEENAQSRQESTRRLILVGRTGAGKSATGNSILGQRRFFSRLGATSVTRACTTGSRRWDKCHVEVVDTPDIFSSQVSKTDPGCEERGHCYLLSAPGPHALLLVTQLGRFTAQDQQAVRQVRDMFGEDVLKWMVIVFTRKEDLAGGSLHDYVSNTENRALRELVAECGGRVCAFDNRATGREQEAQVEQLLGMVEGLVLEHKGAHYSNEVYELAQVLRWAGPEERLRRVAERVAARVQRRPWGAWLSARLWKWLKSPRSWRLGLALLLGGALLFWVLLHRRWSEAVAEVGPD
UniProt P07203, whole entry: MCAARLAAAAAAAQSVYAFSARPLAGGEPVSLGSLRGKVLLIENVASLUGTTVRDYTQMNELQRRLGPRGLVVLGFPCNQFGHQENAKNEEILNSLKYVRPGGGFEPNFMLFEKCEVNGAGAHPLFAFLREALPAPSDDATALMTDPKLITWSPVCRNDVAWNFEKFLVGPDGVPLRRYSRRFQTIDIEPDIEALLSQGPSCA
UniProt Q9Y371: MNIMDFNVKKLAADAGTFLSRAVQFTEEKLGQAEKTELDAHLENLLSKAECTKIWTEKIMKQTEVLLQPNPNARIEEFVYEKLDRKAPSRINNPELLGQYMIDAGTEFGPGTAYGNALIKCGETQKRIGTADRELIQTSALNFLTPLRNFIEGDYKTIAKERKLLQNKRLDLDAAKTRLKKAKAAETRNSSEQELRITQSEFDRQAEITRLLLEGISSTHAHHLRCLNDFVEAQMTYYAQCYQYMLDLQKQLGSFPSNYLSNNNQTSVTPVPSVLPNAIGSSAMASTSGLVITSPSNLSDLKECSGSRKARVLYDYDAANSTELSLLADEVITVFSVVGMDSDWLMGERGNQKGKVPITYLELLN
UniProt O14979: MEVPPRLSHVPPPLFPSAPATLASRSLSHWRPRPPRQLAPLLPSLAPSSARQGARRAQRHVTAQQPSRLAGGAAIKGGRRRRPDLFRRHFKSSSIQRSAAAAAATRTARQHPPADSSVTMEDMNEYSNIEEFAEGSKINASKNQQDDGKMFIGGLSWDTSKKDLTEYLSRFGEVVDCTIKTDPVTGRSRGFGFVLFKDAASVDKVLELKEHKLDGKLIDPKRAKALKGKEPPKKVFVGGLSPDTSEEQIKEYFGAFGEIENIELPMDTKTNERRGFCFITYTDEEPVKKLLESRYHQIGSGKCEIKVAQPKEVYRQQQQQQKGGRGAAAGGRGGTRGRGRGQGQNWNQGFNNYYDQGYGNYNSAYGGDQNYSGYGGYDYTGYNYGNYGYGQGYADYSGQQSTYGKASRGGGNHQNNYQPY
UniProt Q96FV9: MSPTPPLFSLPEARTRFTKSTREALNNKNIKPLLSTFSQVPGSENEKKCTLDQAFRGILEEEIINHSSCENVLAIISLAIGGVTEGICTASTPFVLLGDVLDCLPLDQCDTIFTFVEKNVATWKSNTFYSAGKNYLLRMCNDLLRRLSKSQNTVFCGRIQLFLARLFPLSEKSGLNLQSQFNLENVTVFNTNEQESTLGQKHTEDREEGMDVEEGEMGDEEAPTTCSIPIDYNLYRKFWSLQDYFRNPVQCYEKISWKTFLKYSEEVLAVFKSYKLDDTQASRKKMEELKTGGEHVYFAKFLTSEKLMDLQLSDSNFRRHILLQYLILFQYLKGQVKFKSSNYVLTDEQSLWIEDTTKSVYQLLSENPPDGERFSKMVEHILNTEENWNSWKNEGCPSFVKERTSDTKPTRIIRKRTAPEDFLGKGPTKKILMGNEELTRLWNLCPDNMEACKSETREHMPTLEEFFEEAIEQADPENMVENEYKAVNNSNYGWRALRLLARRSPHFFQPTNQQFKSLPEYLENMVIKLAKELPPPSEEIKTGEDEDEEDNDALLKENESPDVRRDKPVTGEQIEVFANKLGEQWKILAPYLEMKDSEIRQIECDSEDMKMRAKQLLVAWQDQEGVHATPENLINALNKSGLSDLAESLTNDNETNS
UniProt Q70IA6: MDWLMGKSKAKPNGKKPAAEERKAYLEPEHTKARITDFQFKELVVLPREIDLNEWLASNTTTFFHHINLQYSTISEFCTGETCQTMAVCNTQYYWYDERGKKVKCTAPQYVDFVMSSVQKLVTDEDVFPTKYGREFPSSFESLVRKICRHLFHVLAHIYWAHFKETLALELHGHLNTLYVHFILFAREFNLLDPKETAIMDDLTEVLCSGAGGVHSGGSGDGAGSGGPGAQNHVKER
UniProt Q6DD87: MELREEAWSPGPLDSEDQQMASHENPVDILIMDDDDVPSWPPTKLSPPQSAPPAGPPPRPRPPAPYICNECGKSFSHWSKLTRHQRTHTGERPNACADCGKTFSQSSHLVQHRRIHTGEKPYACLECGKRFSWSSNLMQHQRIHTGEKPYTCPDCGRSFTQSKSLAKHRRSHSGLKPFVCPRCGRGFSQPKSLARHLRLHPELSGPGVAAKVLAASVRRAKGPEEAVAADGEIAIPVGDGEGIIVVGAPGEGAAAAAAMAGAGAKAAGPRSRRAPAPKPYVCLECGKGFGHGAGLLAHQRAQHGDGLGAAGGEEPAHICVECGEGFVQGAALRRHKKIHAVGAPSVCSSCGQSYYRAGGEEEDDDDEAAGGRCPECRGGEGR
UniProt P46087: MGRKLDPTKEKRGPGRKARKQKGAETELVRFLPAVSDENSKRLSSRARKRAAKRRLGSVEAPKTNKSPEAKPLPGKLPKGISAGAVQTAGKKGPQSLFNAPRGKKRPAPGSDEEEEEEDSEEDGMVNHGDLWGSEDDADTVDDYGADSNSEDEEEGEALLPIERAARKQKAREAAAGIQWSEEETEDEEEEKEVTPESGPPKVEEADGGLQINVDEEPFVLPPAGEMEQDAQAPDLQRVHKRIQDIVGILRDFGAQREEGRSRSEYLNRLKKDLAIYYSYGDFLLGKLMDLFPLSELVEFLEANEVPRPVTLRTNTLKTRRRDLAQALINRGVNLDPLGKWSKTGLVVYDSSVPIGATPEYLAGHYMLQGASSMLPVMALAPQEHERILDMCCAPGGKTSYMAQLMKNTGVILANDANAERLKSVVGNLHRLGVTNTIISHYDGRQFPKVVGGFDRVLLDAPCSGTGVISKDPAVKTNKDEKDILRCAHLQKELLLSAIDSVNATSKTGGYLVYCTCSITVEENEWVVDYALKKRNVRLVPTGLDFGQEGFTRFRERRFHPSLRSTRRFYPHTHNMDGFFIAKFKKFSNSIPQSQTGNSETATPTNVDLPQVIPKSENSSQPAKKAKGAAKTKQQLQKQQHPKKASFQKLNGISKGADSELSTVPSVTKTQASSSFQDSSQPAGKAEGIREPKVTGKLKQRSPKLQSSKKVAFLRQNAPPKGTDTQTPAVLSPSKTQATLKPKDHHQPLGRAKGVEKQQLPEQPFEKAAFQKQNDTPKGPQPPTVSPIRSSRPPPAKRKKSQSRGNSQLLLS
UniProt O75503: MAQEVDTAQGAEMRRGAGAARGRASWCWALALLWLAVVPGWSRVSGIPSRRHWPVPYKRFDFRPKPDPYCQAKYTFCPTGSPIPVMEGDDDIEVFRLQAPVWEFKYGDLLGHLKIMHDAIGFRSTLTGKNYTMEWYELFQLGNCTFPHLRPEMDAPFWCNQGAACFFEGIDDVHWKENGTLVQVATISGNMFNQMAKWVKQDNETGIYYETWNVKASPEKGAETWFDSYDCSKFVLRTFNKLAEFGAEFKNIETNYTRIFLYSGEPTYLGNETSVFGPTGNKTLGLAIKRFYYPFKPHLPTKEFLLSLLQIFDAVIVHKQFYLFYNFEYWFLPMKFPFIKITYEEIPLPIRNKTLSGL
UniProt Q9H0U3: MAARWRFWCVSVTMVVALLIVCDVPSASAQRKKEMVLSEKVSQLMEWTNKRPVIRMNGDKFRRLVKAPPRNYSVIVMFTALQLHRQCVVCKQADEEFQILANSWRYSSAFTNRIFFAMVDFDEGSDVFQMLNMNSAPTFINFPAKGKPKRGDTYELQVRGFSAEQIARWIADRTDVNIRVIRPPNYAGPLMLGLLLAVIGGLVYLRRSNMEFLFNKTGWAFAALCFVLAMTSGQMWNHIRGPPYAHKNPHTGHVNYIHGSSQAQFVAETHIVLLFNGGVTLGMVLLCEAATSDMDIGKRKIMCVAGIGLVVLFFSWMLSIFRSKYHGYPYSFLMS
UniProt Q8WU76: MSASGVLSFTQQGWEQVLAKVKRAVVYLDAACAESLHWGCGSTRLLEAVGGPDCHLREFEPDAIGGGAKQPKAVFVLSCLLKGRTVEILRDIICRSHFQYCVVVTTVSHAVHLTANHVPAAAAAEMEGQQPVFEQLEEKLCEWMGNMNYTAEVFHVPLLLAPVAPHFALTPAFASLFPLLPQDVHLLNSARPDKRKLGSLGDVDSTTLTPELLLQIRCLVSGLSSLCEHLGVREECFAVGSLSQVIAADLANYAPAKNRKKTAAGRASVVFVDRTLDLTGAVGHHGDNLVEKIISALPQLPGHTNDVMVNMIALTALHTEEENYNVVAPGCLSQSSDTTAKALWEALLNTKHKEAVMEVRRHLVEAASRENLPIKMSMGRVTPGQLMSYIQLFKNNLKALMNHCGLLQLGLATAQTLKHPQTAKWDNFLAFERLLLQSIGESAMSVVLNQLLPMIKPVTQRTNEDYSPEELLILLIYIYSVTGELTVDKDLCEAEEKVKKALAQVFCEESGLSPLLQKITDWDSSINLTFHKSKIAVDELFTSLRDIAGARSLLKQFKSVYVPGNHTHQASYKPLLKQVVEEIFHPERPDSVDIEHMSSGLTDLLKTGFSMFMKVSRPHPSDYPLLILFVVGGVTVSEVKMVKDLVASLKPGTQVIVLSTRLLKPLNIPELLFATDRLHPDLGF
UniProt Q5VWQ0: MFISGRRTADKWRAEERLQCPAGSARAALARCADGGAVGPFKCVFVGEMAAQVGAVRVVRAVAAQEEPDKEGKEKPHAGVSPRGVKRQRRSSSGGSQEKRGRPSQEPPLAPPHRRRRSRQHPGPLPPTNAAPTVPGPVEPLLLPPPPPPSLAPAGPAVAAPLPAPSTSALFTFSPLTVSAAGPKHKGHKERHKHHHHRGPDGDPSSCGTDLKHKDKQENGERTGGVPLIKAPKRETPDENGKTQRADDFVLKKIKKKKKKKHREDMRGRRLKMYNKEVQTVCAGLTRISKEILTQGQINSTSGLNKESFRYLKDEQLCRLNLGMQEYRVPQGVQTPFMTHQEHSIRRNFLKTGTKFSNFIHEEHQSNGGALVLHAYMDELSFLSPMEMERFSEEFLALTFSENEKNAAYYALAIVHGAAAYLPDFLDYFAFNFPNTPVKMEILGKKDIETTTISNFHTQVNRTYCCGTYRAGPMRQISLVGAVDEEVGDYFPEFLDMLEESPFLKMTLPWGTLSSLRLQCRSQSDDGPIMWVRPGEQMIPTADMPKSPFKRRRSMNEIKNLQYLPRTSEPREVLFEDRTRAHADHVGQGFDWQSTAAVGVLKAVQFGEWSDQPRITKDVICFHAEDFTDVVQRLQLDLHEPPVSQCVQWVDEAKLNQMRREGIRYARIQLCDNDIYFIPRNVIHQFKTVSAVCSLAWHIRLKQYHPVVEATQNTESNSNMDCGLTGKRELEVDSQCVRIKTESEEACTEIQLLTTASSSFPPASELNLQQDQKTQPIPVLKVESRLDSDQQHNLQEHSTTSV
UniProt O43617, whole entry: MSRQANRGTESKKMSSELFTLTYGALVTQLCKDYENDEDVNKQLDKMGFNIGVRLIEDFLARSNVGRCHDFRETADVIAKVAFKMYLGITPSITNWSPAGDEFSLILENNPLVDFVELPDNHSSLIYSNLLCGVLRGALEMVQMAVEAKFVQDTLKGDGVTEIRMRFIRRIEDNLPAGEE
UniProt Q9Y3E1: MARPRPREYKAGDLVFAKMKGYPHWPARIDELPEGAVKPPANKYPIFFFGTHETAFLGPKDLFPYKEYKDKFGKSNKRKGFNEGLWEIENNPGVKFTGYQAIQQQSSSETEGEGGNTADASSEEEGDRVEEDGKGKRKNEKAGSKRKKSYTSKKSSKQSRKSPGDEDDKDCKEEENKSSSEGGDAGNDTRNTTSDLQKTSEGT
UniProt Q92504: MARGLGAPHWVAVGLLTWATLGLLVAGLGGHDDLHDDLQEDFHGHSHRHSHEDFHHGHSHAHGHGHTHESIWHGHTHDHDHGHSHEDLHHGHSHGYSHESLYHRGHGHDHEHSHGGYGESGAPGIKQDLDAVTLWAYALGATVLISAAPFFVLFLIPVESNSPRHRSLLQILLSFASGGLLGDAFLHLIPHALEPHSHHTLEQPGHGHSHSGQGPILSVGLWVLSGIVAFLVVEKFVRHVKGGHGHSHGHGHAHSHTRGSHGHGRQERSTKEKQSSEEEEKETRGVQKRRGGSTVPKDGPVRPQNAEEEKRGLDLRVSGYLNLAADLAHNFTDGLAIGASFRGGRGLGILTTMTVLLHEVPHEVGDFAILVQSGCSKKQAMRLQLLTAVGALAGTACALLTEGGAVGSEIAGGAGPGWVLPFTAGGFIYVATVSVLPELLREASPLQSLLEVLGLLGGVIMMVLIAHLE

Target	NP40-soluble protein abundance
A0A087WWC6|P01848 and related entries (UniProt Q6P4I7+P01848)	0.994 ± 0.05
A0A087WTJ2|Q8WWP7 (UniProt Q8WWP7)	0.889 ± 0.067
A0A024R571|Q9H4M9 (UniProt Q9H4M9)	0.893 ± 0.039
A0A087WWF6|F8W8R3 and related entries (UniProt P49005)	0.931 ± 0.027
A0A087WUQ6|P07203 (UniProt P07203)	0.884 ± 0.052
A0A087WW40|Q9Y371 and related entries (UniProt Q9Y371)	0.883 ± 0.084
A0A087WV52|Q9NP92 (UniProt Q9NP92)	1.54 ± 0.6
A0A087WUK2|O14979-3|O14979 and related entries (UniProt O14979)	1.05 ± 0.13
A0A087WVN8|Q13043 (UniProt Q13043)	0.885 ± 0.064
A0A087WWS1|Q96FV9 (UniProt Q96FV9)	2.37 ± 0.83
A0A024R4E5 (UniProt Q00341)	0.978 ± 0.034
A0A087WVS8|Q70IA6 and related entries (UniProt Q70IA6)	0.975 ± 0.055
A0A087WTU9|A0A087WZY3|Q8TCU4 and related entries (UniProt Q8TCU4)	0.96 ± 0.13
A0A087WUD1|Q6DD87 (UniProt Q6DD87)	1 ± 0.04
A0A024RA52|P25787 (UniProt P25787)	1.16 ± 0.14
A0A087WVP4|A0A087X1R1|P53814 and related entries (UniProt P53814)	1.119 ± 0.0095
A0A087WW84|E9PP15 and related entries (UniProt Q14114)	1.02 ± 0.097
A0A087WV73|P46087 and related entries (UniProt P46087)	1.49 ± 0.083

Target	NP40-soluble protein abundance
A0A024R644|O75503 (UniProt O75503)	0.857 ± 0.084
A0A087WU53|Q9H0U3 (UniProt Q9H0U3)	0.947 ± 0.081
A0A087WUD7|Q8WU76 and related entries (UniProt Q8WU76)	1.05 ± 0.13
A0A075B7C0|A0A0C4DGQ5|K7EIV0 and related entries (UniProt P04632)	0.844 ± 0.11
A0A087WTA1|A0A0A0MR20|E9PDN6 and related entries (UniProt Q9C0A0)	1.23 ± 0.23
A0A075B7F8|A8CG34 (UniProt A8CG34)	1.28 ± 0.095
A0A075B716|H0YN88 and related entries (UniProt P08708)	0.77 ± 0.26
A0A087WW14|Q0VDG4 and related entries (UniProt Q0VDG4)	0.9532 ± 0.0082
A0A087WUB9|Q8WYA6 (UniProt Q8WYA6)	1.1 ± 0.0082
A0A087WU02|F8VPA6 and related entries (UniProt Q96RQ1)	0.884 ± 0.071
A0A024RCR6|A0A0G2JK23|P46379 and related entries (UniProt P46379)	0.906 ± 0.07
A0A087WWP8|A0A0C4DGT8|Q5VWQ0 (UniProt Q5VWQ0)	1.44 ± 0.21
A0A087WVF7|Q9NZM3 and related entries (UniProt Q9NZM3)	0.956 ± 0.043
A0A087WWM0|O43617 and related entries (UniProt O43617)	0.82 ± 0.16
A0A075B6F9|M0R3B2 and related entries (UniProt Q9Y314)	0.938 ± 0.044
A0A024R216|Q9Y3E1 (UniProt Q9Y3E1)	1.04 ± 0.13
A0A087WTX2|Q92504 and related entries (UniProt Q92504)	0.99 ± 0.01
A0A087WUC6|E9PI68 and related entries (UniProt Q15005)	0.859 ± 0.055

Same assay, conditions: concentration: 10mM

Target	NP40-soluble protein abundance
A0A087WWC6|P01848 and related entries (UniProt Q6P4I7+P01848)	1 ± 0.085
A0A087WTJ2|Q8WWP7 (UniProt Q8WWP7)	0.885 ± 0.06
A0A024R571|Q9H4M9 (UniProt Q9H4M9)	0.868 ± 0.058
A0A087WWF6|F8W8R3 and related entries (UniProt P49005)	0.935 ± 0.037
A0A087WUQ6|P07203 (UniProt P07203)	0.888 ± 0.12
A0A087WW40|Q9Y371 and related entries (UniProt Q9Y371)	0.879 ± 0.083
A0A087WV52|Q9NP92 (UniProt Q9NP92)	1.37 ± 0.52
A0A087WUK2|O14979-3|O14979 and related entries (UniProt O14979)	1.05 ± 0.13
A0A087WVN8|Q13043 (UniProt Q13043)	0.866 ± 0.06
A0A087WWS1|Q96FV9 (UniProt Q96FV9)	2.4 ± 0.91
A0A024R4E5 (UniProt Q00341)	0.992 ± 0.053
A0A087WVS8|Q70IA6 and related entries (UniProt Q70IA6)	0.915 ± 0.03
A0A087WTU9|A0A087WZY3|Q8TCU4 and related entries (UniProt Q8TCU4)	1.15 ± 0.2
A0A087WUD1|Q6DD87 (UniProt Q6DD87)	0.996 ± 0.049
A0A024RA52|P25787 (UniProt P25787)	1.01 ± 0.16
A0A087WVP4|A0A087X1R1|P53814 and related entries (UniProt P53814)	0.979 ± 0.03
A0A087WW84|E9PP15 and related entries (UniProt Q14114)	0.981 ± 0.012
A0A087WV73|P46087 and related entries (UniProt P46087)	1.67 ± 0.12

Target	NP40-soluble protein abundance
A0A024R644|O75503 (UniProt O75503)	0.917 ± 0.088
A0A087WU53|Q9H0U3 (UniProt Q9H0U3)	0.959 ± 0.036
A0A087WUD7|Q8WU76 and related entries (UniProt Q8WU76)	0.992 ± 0.093
A0A075B7C0|A0A0C4DGQ5|K7EIV0 and related entries (UniProt P04632)	0.868 ± 0.071
A0A087WTA1|A0A0A0MR20|E9PDN6 and related entries (UniProt Q9C0A0)	0.877 ± 0.11
A0A075B7F8|A8CG34 (UniProt A8CG34)	1.46 ± 0.25
A0A075B716|H0YN88 and related entries (UniProt P08708)	0.844 ± 0.3
A0A087WW14|Q0VDG4 and related entries (UniProt Q0VDG4)	0.931 ± 0.057
A0A087WUB9|Q8WYA6 (UniProt Q8WYA6)	1.09 ± 0.018
A0A087WU02|F8VPA6 and related entries (UniProt Q96RQ1)	0.859 ± 0.052
A0A024RCR6|A0A0G2JK23|P46379 and related entries (UniProt P46379)	0.963 ± 0.085
A0A087WWP8|A0A0C4DGT8|Q5VWQ0 (UniProt Q5VWQ0)	1.48 ± 0.22
A0A087WVF7|Q9NZM3 and related entries (UniProt Q9NZM3)	0.975 ± 0.083
A0A087WWM0|O43617 and related entries (UniProt O43617)	0.911 ± 0.11
A0A075B6F9|M0R3B2 and related entries (UniProt Q9Y314)	0.918 ± 0.066
A0A024R216|Q9Y3E1 (UniProt Q9Y3E1)	1.07 ± 0.093
A0A087WTX2|Q92504 and related entries (UniProt Q92504)	0.996 ± 0.032
A0A087WUC6|E9PI68 and related entries (UniProt Q15005)	0.843 ± 0.061
